Measured data: PubChem BioAssay AID504774 (Drosophila RNAi Screening Center, 2011)
Test: 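Knock-downs that shift viability of MMS-exposed cells relative to untreated ones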 (primary screen). Cells: Drosophila Kc167 cells. Reagents: long dsRNA against Drosophila genes, about 0.25 µg dsRNA per well. Timing: about 6 days: 3 days knock-down, then 3 days with or without MMS. Treatment: methyl methanesulphonate 0.004% (w/v) for 3 days after knock-down. Measured: 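ATP-dependent luminescence as a measure of live cells in MMS-exposed wells, quantile normalised within each plate, with replicate values also given as a mean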. Reading the numbers: mean viability with MMS: higher = more surviving cells after MMS.
In all, the deposit lists about 23,000 reagents; below is an unselected part of those that have a named target and a result. 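Values are quantile-normalised luminescence on an arbitrary scale; higher means more cells surviving MMS.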 Names joined by + are all predicted targets of the reagent. Further read-outs or replicates are left out here.

no.	Target gene	amplicon	mean viability with MMS
1	lectin-29Ca	DRSC02635	3.58e6
2	CG5618	DRSC11780	3.55e6
3	CG8272	DRSC07134	3.60e6
4	Zir	DRSC00307	3.28e6
5	BicC	DRSC02005	3.47e6
6	P5cr	DRSC16782	3.44e6
7	Ythdc1	DRSC08141	3.80e6
8	CG31267	DRSC15748	3.60e6
9	CG2291	DRSC06836	3.63e6
10	CG9876	DRSC04586	3.55e6
11	fs(1)h	DRSC18778	3.59e6
12	Dip-C	DRSC15855	3.78e6
13	CG7335	DRSC10816	3.61e6
14	Ugalt	DRSC18467	3.43e6
15	CG14326	DRSC14805	3.24e6
16	BOD1	DRSC15824	3.48e6
17	CG9701	DRSC11093	3.46e6
18	Slmap	DRSC03799	3.54e6
19	Cyp317a1	DRSC07366	3.50e6
20	CG34171	DRSC01637	3.41e6
21	CG10472	DRSC09730	3.71e6
22	CG11768	DRSC14377	3.25e6
23	CG11768	DRSC23219	3.44e6
24	hh	DRSC16965	3.57e6
25	kni	DRSC11891	3.44e6
26	kni	DRSC23093	3.73e6

Laid out differently: results already given.
| Target gene | amplicon | mean viability with MMS |
| --- | --- | --- |
| Ythdc1 | DRSC08141 | 3.80e6 |
| CG31267 | DRSC15748 | 3.60e6 |
| CG2291 | DRSC06836 | 3.63e6 |
| CG9876 | DRSC04586 | 3.55e6 |
| fs(1)h | DRSC18778 | 3.59e6 |
| Dip-C | DRSC15855 | 3.78e6 |
| CG7335 | DRSC10816 | 3.61e6 |
| Ugalt | DRSC18467 | 3.43e6 |

Next entries follow.
no.	Target gene	amplicon	mean viability with MMS
27	Rbf	DRSC18704	3.27e6
28	vvl	DRSC11409	3.58e6
29	Keap1	DRSC15528	3.78e6
30	CG42382	DRSC07671	3.69e6
31	CG15399	DRSC00413	3.34e6
32	CG12581	DRSC12206	3.57e6
33	CG12581	DRSC12207	3.76e6
34	CG5388	DRSC15789	3.50e6
35	CG16865	DRSC01904	3.47e6
36	Gp93	DRSC15827	3.63e6
37	maca	DRSC15738	3.42e6
38	Osi1	DRSC12271	3.67e6
39	TyrR	DRSC16242	3.57e6
40	CG15317	DRSC18005	3.76e6
41	Ent1	DRSC00330	3.59e6
42	CG4408	DRSC15574	3.56e6
43	Nhe2	DRSC03172	3.36e6
44	Nhe2	DRSC03377	3.64e6
45	mTerf3	DRSC11759	3.66e6
46	Mlp84B	DRSC12596	3.52e6
47	Or46a	DRSC07489	3.64e6
48	Or46a	DRSC07490	3.57e6
49	Or46a	DRSC21590	3.65e6
50	Muc91C	DRSC16297	3.57e6
51	Muc91C	DRSC21696	3.35e6
52	AdamTS-B	DRSC18346	3.71e6
53	KCNQ	DRSC06121	3.60e6
54	KCNQ	DRSC06230	3.60e6
55	mIF3	DRSC06290	3.58e6
56	klhl10	DRSC05274	3.45e6
57	klhl10	DRSC19171	3.54e6
58	klhl10	DRSC20750	3.48e6
59	klhl10	DRSC20925	3.48e6
60	Cyp6a13	DRSC07375	3.50e6
61	js	DRSC15004	3.49e6
62	CG15529	DRSC15066	3.25e6
63	Sgs7	DRSC11281	3.48e6
64	Ranbp16	DRSC20160	3.65e6
65	CG6294 + CG6299	DRSC19980	3.58e6
66	Gr59c	DRSC04185	3.59e6
67	mRpS23	DRSC01348	3.26e6
68	B4	DRSC01868	3.44e6
69	B4	DRSC03175	3.69e6
